log2 fold change data for 38 targets are collected here from the supplement of paper PMC10849652.

Chains of the proteins cited; added tags and fusions are not shown. Lines headed by an entry give the natural chain unless they say otherwise; changes in a name come on top.
UniProt Q9ULQ0: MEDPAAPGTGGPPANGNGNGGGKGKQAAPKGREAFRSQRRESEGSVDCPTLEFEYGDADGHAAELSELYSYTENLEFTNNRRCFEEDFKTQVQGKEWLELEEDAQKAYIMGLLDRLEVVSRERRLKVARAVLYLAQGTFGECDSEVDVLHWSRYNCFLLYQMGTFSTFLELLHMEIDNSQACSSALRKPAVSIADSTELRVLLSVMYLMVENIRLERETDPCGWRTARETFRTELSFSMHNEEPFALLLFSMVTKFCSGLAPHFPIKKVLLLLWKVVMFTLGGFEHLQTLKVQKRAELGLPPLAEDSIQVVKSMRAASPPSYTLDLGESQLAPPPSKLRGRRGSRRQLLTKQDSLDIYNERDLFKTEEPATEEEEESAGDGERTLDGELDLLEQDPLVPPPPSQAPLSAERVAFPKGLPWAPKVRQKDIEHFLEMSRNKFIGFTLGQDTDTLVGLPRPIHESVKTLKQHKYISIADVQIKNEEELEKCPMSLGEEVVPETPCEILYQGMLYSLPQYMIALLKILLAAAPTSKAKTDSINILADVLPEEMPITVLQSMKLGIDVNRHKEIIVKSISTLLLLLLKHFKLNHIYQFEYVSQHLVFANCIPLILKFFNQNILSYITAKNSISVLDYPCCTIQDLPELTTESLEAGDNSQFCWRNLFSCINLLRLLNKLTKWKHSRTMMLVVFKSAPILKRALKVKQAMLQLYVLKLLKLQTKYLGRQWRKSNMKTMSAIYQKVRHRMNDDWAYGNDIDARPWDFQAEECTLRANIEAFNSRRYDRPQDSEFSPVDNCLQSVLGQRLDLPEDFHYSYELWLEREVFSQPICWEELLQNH
UniProt Q9UH99: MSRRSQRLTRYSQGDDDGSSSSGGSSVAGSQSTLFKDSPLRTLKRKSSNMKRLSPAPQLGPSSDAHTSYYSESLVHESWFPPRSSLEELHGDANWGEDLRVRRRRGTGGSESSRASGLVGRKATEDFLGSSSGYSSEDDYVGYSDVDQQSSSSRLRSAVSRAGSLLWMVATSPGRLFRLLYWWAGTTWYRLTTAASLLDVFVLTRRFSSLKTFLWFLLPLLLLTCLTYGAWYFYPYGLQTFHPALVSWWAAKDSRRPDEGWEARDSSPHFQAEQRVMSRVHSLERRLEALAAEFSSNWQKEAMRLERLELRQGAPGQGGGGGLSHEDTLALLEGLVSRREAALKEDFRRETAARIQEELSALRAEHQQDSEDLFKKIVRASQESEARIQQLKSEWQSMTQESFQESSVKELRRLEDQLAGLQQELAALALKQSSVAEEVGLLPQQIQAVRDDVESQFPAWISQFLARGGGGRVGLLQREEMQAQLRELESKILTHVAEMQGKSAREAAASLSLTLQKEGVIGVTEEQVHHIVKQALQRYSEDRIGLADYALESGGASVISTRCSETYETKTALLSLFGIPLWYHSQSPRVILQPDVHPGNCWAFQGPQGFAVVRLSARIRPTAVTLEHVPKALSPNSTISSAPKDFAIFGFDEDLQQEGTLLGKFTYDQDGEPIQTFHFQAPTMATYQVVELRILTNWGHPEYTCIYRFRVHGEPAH
UniProt O00268, whole entry, looked up: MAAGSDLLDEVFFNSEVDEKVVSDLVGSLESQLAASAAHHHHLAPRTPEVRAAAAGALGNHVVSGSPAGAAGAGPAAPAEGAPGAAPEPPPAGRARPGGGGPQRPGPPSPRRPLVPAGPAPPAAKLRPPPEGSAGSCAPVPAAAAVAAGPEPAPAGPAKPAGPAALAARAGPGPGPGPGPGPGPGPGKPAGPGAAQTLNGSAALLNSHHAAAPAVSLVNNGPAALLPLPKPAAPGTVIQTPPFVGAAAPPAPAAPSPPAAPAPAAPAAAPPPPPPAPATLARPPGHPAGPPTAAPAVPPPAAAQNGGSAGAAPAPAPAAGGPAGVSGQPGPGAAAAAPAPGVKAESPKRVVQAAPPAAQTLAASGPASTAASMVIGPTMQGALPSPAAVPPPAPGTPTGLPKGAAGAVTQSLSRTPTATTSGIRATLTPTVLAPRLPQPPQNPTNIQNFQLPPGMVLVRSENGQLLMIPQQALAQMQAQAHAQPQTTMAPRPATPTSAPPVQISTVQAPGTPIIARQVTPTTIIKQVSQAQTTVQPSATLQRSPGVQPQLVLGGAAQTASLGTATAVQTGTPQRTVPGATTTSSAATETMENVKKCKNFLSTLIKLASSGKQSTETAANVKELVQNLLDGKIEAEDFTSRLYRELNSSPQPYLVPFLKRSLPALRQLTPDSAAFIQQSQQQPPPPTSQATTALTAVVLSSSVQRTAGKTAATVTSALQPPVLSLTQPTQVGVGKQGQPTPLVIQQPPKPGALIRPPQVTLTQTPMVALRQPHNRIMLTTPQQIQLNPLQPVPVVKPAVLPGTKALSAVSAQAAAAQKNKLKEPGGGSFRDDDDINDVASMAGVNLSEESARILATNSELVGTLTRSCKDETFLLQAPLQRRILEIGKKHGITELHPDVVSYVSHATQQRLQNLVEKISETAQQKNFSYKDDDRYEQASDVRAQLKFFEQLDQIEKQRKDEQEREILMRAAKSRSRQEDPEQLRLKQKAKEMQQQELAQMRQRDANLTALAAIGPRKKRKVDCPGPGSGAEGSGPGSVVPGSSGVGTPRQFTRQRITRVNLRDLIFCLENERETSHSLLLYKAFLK
UniProt Q12846: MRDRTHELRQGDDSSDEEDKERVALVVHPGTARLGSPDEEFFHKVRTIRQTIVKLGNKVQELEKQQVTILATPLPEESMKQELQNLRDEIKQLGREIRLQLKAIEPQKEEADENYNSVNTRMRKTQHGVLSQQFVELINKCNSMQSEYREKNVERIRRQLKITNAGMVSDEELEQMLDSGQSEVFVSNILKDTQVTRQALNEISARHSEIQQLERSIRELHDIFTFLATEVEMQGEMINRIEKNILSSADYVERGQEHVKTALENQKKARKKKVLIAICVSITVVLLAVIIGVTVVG
UniProt P53597: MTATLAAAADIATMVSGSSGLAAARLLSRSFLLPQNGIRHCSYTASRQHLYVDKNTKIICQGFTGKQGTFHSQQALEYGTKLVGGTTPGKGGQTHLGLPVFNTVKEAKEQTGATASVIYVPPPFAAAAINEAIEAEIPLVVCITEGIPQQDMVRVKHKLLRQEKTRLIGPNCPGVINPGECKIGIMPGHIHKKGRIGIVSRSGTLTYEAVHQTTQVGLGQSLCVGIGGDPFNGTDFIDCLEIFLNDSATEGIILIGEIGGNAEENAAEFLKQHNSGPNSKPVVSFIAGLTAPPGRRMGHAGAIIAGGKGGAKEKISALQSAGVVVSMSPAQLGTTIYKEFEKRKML
UniProt Q15833: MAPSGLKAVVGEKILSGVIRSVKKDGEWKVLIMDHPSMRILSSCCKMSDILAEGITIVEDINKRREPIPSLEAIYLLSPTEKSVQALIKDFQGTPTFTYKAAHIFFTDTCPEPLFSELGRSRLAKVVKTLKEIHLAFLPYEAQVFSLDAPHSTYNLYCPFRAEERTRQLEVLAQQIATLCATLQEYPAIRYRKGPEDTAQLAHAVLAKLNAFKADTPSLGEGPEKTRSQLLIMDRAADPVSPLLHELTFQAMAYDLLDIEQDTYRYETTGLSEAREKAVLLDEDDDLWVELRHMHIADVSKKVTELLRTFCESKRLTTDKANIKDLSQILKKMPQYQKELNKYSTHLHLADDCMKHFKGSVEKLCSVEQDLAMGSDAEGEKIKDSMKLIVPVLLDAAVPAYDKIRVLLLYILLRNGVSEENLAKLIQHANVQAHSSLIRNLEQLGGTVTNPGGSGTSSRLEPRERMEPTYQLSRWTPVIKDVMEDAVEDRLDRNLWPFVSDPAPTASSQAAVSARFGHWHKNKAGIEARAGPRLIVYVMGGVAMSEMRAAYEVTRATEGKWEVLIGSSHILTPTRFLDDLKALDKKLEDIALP
UniProt P56962: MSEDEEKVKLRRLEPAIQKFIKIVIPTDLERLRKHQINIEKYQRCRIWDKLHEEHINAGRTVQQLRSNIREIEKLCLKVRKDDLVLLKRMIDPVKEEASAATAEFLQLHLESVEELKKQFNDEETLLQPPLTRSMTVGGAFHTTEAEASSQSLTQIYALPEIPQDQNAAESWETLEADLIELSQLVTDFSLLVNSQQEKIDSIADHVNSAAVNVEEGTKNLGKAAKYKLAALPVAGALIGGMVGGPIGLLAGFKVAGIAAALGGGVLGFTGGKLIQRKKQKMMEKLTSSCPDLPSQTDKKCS
UniProt P17542, whole entry, looked up: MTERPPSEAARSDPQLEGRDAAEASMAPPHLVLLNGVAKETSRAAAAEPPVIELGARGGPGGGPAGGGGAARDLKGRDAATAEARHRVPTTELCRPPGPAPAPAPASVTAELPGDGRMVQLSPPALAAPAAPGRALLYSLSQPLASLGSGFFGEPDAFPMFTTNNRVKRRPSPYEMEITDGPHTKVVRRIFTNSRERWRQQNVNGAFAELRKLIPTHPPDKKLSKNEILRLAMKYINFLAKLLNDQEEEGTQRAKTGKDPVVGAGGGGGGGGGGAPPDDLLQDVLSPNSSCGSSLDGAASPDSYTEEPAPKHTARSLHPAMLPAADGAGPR
UniProt Q8IYB8: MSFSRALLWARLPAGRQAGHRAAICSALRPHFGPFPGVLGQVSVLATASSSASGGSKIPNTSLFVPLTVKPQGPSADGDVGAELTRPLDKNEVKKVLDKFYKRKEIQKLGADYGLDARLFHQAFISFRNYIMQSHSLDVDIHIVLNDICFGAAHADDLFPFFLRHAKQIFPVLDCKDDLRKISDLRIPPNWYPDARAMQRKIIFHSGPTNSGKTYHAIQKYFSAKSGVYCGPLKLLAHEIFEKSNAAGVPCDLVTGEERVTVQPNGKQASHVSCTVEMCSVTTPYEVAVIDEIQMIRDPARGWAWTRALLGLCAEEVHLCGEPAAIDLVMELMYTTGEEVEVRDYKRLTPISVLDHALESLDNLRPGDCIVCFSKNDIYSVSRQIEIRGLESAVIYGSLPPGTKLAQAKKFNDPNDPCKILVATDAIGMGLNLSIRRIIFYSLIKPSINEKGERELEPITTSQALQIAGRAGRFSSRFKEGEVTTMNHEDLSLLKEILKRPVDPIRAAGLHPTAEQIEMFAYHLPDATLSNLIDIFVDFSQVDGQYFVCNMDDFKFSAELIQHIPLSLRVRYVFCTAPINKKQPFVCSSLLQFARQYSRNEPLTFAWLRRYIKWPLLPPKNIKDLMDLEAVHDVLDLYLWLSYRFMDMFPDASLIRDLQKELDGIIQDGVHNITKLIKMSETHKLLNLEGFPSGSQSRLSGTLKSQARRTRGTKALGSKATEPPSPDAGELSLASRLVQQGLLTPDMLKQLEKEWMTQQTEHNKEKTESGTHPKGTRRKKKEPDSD
UniProt Q17R31: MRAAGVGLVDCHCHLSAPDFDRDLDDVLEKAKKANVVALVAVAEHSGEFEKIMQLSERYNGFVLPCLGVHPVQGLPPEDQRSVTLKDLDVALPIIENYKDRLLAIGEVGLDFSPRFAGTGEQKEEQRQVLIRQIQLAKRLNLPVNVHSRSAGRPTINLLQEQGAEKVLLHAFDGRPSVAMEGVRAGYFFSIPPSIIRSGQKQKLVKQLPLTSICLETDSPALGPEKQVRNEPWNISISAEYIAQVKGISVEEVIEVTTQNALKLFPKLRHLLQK
UniProt Q8NHG7: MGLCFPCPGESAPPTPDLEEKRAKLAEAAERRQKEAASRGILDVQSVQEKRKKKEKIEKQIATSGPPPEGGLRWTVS
UniProt O75410: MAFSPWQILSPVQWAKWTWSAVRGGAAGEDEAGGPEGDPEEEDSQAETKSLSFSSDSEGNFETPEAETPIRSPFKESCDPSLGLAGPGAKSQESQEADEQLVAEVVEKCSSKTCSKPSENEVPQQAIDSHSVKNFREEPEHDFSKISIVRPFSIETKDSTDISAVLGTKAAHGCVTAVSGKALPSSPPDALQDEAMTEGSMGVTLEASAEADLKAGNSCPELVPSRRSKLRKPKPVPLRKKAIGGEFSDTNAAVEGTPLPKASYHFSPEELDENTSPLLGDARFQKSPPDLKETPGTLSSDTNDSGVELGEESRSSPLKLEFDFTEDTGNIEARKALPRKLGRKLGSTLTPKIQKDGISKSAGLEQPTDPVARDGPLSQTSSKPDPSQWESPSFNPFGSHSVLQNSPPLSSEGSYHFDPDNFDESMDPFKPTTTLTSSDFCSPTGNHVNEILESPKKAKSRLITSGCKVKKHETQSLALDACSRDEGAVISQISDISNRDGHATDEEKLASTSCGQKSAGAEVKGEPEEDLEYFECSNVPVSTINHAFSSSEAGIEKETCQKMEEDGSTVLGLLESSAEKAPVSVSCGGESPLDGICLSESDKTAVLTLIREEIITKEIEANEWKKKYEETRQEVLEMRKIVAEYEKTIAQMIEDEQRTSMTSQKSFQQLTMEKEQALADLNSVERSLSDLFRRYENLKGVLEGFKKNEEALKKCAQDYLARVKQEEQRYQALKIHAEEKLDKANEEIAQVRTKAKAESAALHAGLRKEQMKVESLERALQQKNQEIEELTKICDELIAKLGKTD

This is one part of the list.

Compound in the assay: C1CCN(C1)C(=O)NC2=CC=CC(=C2)NC3=NC=C(C(=N3)NCCC4=CN=CN4)Br
Kind of assay: log2 fold change, soluble protein after heating vs DMSO (PISA); higher = thermal stabilisation; K562 cells, 10 uM, 30 min; active = over 0.2 and 3.5 SD of the protein, either way, in both replicates (recomputed). The method in brief: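 Quantification of soluble protein used TMTpro 16plex LC-MS/MS, with channel sums equalised. Samples were the supernatant after 21,000xg for 90 min of pooled aliquots from K562 cells (2×10^6 cells/mL) treated with 10 μM compound for 30 min, heated for 3 min over 48°C-58°C, and extracted in PBS with 0.5% NP-40 at 4°C. Values, from duplicates, describe thermal stability against control samples on a log2 fold-change scale.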
Regarding STOML2 (UniProt Q9UJZ1), the log2 fold change was inactive: -0.005.
For STRBP (UniProt Q96SI9), the log2 fold change is inactive: -0.025.
Regarding STRIP2 (UniProt Q9ULQ0), the log2 fold change is inactive: -0.001.
As for SUOX (UniProt P51687), the figure is inactive: 0.013; as for TACO1 (UniProt Q9BSH4), inactive: -0.132; as for SUN2 (UniProt Q9UH99), inactive: -0.038.
The same measure for TARSL2 (UniProt A2RTX5): inactive: 0.045; for TAX1BP1 (UniProt Q86VP1): inactive: -0.015; for TAF4 (UniProt O00268): inactive: 0.089.
The same measure for STX12 (UniProt Q86Y82): inactive: 0.024; for STK3 isoform 2 (UniProt Q13188): inactive: -0.039; for TAGLN2 isoform 2 (UniProt P37802): inactive: -0.028.
Take TANK (UniProt Q92844): the log2 fold change is inactive: 0.014.
Consider SUPT4H1 (UniProt P63272), for which the log2 fold change is inactive: -0.025.
As for SYPL1 (UniProt Q16563), the figure is inactive: 0.004; as for STX4 (UniProt Q12846), inactive: -0.049; as for TBC1D13 (UniProt Q9NVG8), inactive: 0.003.
Consider SUCLG1 (UniProt P53597), for which the log2 fold change was inactive: 0.021.
As for TAF8 isoform 2 (UniProt Q7Z7C8), the figure is inactive: -0.053; as for STXBP2 isoform 3 (UniProt Q15833), inactive: -0.058; as for TAF15 (UniProt Q92804), inactive: 0.029.
The same measure for SUB1 (UniProt P53999): inactive: 0.017.
On to TARS2 (UniProt Q9BW92), for which the log2 fold change was inactive: 0.001.
For SYNE1 (UniProt Q8NF91), the log2 fold change was inactive: -0.038.
As for STX17 (UniProt P56962), the figure is inactive: -0.004.
In the case of SUPT6H (UniProt Q7KZ85), the log2 fold change is inactive: -0.227.
As to SYAP1 (UniProt Q96A49), the log2 fold change was inactive: 0.031.
For the target TAL1 (UniProt P17542), the log2 fold change was inactive: -0.006.
As for SUPV3L1 (UniProt Q8IYB8), the figure is inactive: -0.017; as for TBC1D10B (UniProt Q4KMP7), inactive: -0.024; as for TARBP2 (UniProt Q15633), inactive: 0.106.
The same measure for TATDN3 isoform 3 (UniProt Q17R31): inactive: 0.052; for SVIP (UniProt Q8NHG7): inactive: 0.034; for STRIP1 (UniProt Q5VSL9): inactive: -0.069.
As for STK38 (UniProt Q15208), the figure is inactive: -0.025; as for TACC1 isoform 2 (UniProt O75410), inactive: -0.015; as for SYNCRIP (UniProt O60506), inactive: 0.06.
Regarding STUB1 (UniProt Q9UNE7), the log2 fold change was inactive: 0.041.
